Experimental data: the supplement of paper PMC10849652
Some of the results follow.

Protein sequences, listed by entry. Tags and fused reporters are not part of them. Lines headed by an entry give the natural chain unless they say otherwise; changes in a name come on top.
UniProt P11166: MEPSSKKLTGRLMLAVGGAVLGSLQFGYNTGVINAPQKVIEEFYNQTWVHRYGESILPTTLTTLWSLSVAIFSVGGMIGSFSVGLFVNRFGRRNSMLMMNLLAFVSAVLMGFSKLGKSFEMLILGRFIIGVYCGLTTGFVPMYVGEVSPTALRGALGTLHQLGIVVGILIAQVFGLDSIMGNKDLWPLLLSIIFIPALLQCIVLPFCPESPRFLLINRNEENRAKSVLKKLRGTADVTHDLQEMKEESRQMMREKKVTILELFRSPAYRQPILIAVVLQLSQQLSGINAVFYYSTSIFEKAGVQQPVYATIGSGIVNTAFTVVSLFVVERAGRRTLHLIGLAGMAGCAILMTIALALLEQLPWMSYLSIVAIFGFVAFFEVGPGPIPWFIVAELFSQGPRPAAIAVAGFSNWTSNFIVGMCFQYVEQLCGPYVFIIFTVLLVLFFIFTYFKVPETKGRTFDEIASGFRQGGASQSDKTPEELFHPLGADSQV
UniProt P12235: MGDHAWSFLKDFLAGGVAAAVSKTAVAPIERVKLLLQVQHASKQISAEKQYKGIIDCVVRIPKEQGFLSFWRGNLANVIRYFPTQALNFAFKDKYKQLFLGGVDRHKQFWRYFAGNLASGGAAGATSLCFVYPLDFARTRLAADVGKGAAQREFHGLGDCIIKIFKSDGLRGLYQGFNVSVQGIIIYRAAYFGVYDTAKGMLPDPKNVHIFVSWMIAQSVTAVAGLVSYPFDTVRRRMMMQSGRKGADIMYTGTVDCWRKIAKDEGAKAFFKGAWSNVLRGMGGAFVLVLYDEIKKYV
UniProt P30825: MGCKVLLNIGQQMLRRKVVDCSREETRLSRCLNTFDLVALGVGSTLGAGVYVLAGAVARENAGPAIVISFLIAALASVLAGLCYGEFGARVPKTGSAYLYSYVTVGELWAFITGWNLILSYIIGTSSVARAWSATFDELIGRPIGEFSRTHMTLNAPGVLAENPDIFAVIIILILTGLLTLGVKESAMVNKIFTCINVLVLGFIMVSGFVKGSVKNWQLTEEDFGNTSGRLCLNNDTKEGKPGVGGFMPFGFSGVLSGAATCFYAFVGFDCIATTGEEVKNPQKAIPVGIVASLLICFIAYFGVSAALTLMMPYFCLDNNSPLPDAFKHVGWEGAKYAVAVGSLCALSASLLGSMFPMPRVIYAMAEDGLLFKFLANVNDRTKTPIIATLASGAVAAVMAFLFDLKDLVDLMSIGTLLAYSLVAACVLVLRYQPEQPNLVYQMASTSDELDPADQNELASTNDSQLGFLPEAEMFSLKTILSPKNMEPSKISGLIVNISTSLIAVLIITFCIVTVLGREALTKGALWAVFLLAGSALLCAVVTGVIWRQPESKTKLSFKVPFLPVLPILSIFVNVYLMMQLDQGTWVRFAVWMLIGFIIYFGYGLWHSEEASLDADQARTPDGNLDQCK
UniProt Q9Y6M5: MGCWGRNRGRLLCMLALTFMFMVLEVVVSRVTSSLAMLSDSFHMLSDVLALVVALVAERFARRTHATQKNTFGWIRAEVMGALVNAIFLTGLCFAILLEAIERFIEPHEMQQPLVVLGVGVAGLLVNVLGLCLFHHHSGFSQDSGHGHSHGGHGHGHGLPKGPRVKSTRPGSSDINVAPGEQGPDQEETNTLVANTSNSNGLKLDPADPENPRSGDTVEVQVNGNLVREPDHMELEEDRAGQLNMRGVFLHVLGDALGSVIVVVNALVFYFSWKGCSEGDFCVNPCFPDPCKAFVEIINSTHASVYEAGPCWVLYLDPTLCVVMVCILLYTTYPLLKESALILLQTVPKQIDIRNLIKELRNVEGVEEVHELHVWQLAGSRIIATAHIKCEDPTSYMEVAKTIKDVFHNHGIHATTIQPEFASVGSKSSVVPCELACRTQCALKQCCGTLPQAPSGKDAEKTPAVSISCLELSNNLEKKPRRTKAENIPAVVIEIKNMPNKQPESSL
UniProt Q8NBW4: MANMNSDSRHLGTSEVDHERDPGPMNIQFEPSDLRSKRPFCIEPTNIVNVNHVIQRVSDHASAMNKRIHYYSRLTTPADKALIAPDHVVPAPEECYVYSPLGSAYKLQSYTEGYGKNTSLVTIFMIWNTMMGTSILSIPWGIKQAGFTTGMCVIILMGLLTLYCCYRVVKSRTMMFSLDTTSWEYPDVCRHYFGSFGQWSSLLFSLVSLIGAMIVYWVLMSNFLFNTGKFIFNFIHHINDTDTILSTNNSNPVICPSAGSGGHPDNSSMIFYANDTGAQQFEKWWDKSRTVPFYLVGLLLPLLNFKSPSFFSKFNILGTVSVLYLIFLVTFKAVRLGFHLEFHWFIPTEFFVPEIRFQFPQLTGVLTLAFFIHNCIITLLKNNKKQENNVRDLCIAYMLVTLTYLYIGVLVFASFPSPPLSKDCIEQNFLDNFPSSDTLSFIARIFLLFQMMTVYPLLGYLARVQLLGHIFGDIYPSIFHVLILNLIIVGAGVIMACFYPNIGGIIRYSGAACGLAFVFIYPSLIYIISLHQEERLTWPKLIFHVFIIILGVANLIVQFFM
UniProt Q14BN4: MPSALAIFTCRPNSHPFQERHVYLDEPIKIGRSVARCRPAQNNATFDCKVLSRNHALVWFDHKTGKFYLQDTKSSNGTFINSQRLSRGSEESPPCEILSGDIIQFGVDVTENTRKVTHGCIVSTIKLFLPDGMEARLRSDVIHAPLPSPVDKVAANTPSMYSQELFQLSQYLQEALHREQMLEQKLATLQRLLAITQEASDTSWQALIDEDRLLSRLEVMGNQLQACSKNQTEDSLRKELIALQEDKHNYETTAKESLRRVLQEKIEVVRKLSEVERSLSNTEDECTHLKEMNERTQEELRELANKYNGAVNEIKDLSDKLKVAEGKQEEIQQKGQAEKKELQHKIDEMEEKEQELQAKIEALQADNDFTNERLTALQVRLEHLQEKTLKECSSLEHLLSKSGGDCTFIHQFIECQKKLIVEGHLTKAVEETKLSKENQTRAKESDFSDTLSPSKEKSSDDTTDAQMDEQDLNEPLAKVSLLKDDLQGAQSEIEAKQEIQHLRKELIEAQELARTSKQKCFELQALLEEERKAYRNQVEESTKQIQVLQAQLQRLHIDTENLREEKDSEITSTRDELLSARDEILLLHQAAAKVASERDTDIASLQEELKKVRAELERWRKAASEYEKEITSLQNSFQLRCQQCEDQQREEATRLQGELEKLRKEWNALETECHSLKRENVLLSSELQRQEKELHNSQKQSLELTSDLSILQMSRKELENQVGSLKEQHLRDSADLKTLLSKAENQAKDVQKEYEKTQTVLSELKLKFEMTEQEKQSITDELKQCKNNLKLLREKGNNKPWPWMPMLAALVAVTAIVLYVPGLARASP
UniProt Q9BQT8: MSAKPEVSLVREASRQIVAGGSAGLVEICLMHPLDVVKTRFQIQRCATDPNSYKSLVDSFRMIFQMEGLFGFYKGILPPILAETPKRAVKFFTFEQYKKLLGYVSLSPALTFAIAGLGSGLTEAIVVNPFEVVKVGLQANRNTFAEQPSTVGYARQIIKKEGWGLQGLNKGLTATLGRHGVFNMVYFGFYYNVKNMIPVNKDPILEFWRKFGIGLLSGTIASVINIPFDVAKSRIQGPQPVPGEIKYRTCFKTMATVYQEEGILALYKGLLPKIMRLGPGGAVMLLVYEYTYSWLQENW
UniProt Q13485: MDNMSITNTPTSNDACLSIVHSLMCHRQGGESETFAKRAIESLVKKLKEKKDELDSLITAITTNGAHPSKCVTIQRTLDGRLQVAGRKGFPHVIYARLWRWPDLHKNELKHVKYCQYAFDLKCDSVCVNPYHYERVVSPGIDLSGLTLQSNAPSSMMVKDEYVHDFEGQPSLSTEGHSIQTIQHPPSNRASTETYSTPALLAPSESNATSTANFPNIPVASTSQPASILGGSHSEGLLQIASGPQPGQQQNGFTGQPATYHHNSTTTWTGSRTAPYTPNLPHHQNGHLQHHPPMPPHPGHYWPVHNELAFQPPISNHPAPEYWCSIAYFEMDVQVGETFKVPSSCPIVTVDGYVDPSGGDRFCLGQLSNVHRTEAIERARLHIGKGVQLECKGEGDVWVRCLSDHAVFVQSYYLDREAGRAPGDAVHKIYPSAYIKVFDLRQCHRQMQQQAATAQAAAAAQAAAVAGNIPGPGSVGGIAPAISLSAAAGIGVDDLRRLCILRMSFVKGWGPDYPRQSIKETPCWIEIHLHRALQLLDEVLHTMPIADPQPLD
UniProt Q7Z2H8: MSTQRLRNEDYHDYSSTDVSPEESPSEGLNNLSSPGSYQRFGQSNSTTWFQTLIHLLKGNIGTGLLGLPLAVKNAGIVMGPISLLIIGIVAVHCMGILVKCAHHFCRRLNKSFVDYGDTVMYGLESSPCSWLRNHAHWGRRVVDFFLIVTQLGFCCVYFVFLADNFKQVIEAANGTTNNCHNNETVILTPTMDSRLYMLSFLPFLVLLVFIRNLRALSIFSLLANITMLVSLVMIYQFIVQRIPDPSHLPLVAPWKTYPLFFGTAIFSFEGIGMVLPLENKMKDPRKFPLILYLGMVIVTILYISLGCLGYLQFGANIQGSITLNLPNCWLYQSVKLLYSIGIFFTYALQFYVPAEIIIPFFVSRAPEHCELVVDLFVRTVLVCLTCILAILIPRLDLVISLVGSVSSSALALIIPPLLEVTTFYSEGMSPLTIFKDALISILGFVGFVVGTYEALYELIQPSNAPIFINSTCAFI
UniProt Q8IWA5: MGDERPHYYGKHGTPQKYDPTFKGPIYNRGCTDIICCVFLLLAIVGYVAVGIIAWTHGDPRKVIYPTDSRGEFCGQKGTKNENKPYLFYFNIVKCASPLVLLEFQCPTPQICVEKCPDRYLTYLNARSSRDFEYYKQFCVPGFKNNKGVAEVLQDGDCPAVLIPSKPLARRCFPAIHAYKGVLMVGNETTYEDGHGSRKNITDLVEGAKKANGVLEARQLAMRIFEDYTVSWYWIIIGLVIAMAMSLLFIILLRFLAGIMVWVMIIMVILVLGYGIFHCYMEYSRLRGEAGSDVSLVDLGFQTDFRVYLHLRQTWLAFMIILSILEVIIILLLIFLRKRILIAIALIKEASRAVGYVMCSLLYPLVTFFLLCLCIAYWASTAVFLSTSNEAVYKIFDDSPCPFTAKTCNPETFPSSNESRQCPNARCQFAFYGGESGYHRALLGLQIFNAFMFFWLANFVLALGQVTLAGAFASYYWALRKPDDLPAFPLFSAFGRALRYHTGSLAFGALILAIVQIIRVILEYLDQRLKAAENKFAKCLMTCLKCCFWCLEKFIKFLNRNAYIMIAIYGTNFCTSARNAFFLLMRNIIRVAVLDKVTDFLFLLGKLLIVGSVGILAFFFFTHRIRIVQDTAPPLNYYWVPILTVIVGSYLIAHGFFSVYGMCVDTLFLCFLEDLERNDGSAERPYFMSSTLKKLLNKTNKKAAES
UniProt Q0VAQ4: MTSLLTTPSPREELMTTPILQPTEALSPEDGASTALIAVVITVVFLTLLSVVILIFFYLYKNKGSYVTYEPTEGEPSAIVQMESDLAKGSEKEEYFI
UniProt Q5BKX6: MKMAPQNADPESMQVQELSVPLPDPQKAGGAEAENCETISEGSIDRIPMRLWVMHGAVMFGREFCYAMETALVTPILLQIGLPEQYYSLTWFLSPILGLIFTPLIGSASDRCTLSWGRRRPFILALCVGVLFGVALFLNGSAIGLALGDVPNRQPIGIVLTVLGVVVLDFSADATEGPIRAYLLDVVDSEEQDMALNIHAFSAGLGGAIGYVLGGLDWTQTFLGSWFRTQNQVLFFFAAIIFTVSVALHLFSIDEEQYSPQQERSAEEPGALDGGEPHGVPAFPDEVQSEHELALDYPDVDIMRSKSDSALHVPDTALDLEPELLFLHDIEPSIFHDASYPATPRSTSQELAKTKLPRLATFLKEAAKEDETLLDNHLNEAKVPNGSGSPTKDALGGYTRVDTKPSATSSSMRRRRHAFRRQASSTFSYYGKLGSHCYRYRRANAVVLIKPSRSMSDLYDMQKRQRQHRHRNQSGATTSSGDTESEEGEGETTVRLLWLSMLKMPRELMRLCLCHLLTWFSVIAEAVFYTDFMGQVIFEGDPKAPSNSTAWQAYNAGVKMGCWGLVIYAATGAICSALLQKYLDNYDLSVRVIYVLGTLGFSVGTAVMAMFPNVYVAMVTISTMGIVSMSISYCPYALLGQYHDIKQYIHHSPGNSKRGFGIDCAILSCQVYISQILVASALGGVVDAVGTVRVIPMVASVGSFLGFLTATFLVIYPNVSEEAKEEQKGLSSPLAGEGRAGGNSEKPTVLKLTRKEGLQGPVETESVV
UniProt P78383: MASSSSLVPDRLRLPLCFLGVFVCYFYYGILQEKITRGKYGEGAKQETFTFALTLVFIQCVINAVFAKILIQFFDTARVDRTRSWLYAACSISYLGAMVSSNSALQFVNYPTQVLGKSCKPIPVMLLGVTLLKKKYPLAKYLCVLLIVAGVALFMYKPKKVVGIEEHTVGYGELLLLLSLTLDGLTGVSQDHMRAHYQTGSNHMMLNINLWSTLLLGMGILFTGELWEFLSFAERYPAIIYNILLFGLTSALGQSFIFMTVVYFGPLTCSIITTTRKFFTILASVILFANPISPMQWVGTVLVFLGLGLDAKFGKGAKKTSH

What was measured:
Test in all cases: log2 fold change, soluble protein after heating vs DMSO (PISA); higher = thermal stabilisation; K562 lysate, 10 uM; active = over 0.2 and 3.5 SD of the protein, either way, in both replicates (recomputed)
alvocidib = compound: CN1CC[C@H](c2c(O)cc(O)c3c(=O)cc(-c4ccccc4Cl)oc23)[C@H](O)C1 [alvocidib]
Outline: (§1)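 Following dounce homogenisation of K562 pellets in PBS pH 7.4 with 1 mM MgCl2, crude extract at 1 mg/mL protein was incubated for 30 min with 10 μM compound. Aliquots were then heated for 3 min over 48°C-58°C and pooled, NP-40 was added to 0.5% at 4°C, and soluble protein was recovered as the supernatant at 21,000xg for 90 min. Channel-sum-equalised TMTpro 16plex LC-MS/MS quantified this protein. Each value, from duplicates, is a log-two fold change in thermal stability relative to solvent controls.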

Tubastatin A = compound: CN1CCc2c(c3ccccc3n2Cc2ccc(C(=O)NO)cc2)C1 [Tubastatin A]
Outline: as §1

[1] = compound: CNC(=O)C1=CC=CC=C1NC2=NC(=NC=C2Cl)NC3=C(C=C(C=C3)N4CCOCC4)OC
Outline: as §1

defactinib = compound: CNC(=O)c1ccc(Nc2ncc(C(F)(F)F)c(NCc3nccnc3N(C)S(C)(=O)=O)n2)cc1 [defactinib]
Outline: as §1

[2] = compound: CNc1nc(-c2ccc3c(N)n[nH]c3c2)cc(N2C[C@@H](C(=O)NC3CCCCC3)CC[C@H]2C)n1
Outline: as §1

encorafenib = compound: COC(=O)N[C@@H](C)CNc1nccc(-c2cn(C(C)C)nc2-c2cc(Cl)cc(NS(C)(=O)=O)c2F)n1 [encorafenib]
Outline: as §1

[3] = compound: COC(=O)[C@H](CCSC)NC(=O)C1=C(C=C(C=C1)NC[C@H](CS)N)C2=CC=CC=C2
Outline: as §1

alisertib = compound: COc1cc(Nc2ncc3c(n2)-c2ccc(Cl)cc2C(c2c(F)cccc2OC)=NC3)ccc1C(=O)O [alisertib]
Outline: as §1

[4] = compound: COc1cc2nc(-c3cc(F)ccc3O)nc(N[C@@H]3CNC[C@H]3C(C)(C)O)c2cc1OC
Outline: as §1

gefitinib = compound: COc1cc2ncnc(Nc3ccc(F)c(Cl)c3)c2cc1OCCCN1CCOCC1 [gefitinib]
Outline: as §1

lapatinib = compound: CS(=O)(=O)CCNCc1ccc(-c2ccc3ncnc(Nc4ccc(OCc5cccc(F)c5)c(Cl)c4)c3c2)o1 [lapatinib]
Outline: as §1

pictilisib = compound: CS(=O)(=O)N1CCN(Cc2cc3nc(-c4cccc5[nH]ncc45)nc(N4CCOCC4)c3s2)CC1 [pictilisib]
Outline: as §1

crizotinib = compound: C[C@@H](Oc1cc(-c2cnn(C3CCNCC3)c2)cnc1N)c1c(Cl)ccc(F)c1Cl [crizotinib]
Outline: as §1

[5] = compound: C[C@H](C1=CC=C(C=C1)C(=O)NC2=C3C=CNC3=NC=C2)N
Outline: as §1

duvelisib = compound: C[C@H](Nc1ncnc2nc[nH]c12)c1cc2cccc(Cl)c2c(=O)n1-c1ccccc1 [duvelisib]
Outline: as §1

gandotinib = compound: Cc1cc(Nc2cc(CN3CCOCC3)c3nc(C)c(Cc4ccc(Cl)cc4F)n3n2)n[nH]1 [gandotinib]
Outline: as §1

tozasertib = compound: Cc1cc(Nc2cc(N3CCN(C)CC3)nc(Sc3ccc(NC(=O)C4CC4)cc3)n2)n[nH]1 [tozasertib]
Outline: as §1

doramapimod = compound: Cc1ccc(-n2nc(C(C)(C)C)cc2NC(=O)Nc2ccc(OCCN3CCOCC3)c3ccccc23)cc1 [doramapimod]
Outline: as §1

bafetinib = compound: Cc1ccc(NC(=O)c2ccc(CN3CC[C@H](N(C)C)C3)c(C(F)(F)F)c2)cc1Nc1nccc(-c2cncnc2)n1 [bafetinib]
Outline: as §1

[6] = compound: Cc1cccc(CC(=O)N2CCc3c2ccc(-c2cn(C)c4ncnc(N)c24)c3F)n1
Outline: as §1

Measured: log2 fold change

SLC2A1 (UniProt P11166)
inactive: alvocidib 0.035 | Tubastatin A 0.017 | [1] -0.021 | defactinib 0.03 | [2] -0.059 | encorafenib -0.001 | [3] -0.008 | alisertib -0.002 | [4] 0.034 | gefitinib 0.046 | lapatinib -0.025 | pictilisib 0.011 | crizotinib 0.068 | [5] 0.05 | duvelisib 0.024 | gandotinib 0 | tozasertib 0.008 | doramapimod -0.039 | bafetinib 0.014 | [6] -0.037

SLC25A4 (UniProt P12235)
inactive: alvocidib -0.088 | Tubastatin A -0.008 | [1] 0.028 | defactinib -0.009 | [2] -0.016 | encorafenib 0.004 | [3] 0.108 | alisertib 0.01 | [4] 0.012 | gefitinib 0.011 | lapatinib 0.01 | pictilisib -0.009 | crizotinib 0.024 | [5] -0.05 | duvelisib 0.031 | gandotinib 0.17 | tozasertib -0.002 | doramapimod 0.023 | bafetinib 0.026 | [6] 0.111

SLC7A1 (UniProt P30825)
inactive: alvocidib -0.013 | Tubastatin A -0.009 | [1] -0.013 | defactinib 0.002 | [2] -0.116 | encorafenib 0.049 | [3] -0.019 | alisertib -0.028 | [4] 0.017 | gefitinib 0.042 | lapatinib 0.008 | pictilisib -0.01 | crizotinib 0.024 | [5] 0.025 | duvelisib 0.019 | gandotinib -0.031 | tozasertib 0.004 | doramapimod 0.017 | bafetinib -0.033 | [6] -0.031

SLC38A5 (UniProt Q8WUX1)
inactive: alvocidib -0.066 | Tubastatin A -0.008 | [1] 0.013 | defactinib -0.037 | [2] -0.039 | encorafenib 0.027 | [3] -0.042 | alisertib 0.009 | [4] 0.001 | gefitinib -0.027 | lapatinib -0.027 | pictilisib -0.027 | crizotinib -0.062 | [5] -0.158 | duvelisib 0.036 | gandotinib 0.034 | tozasertib -0.008 | doramapimod 0.005 | bafetinib -0.06 | [6] 0.049

Copied from the results shown (2 entries):
SLC2A1 (UniProt P11166)
inactive: alvocidib 0.035 | Tubastatin A 0.017 | [1] -0.021 | defactinib 0.03 | [2] -0.059 | encorafenib -0.001 | [3] -0.008 | alisertib -0.002 | [4] 0.034 | gefitinib 0.046 | lapatinib -0.025 | pictilisib 0.011 | crizotinib 0.068 | [5] 0.05 | duvelisib 0.024 | gandotinib 0 | tozasertib 0.008 | doramapimod -0.039 | bafetinib 0.014 | [6] -0.037

SLC25A4 (UniProt P12235)
inactive: alvocidib -0.088 | Tubastatin A -0.008 | [1] 0.028 | defactinib -0.009 | [2] -0.016 | encorafenib 0.004 | [3] 0.108 | alisertib 0.01 | [4] 0.012 | gefitinib 0.011 | lapatinib 0.01 | pictilisib -0.009 | crizotinib 0.024 | [5] -0.05 | duvelisib 0.031 | gandotinib 0.17 | tozasertib -0.002 | doramapimod 0.023 | bafetinib 0.026 | [6] 0.111

Further records.

SLC4A1 (UniProt P02730)
inactive: alvocidib -0.039 | Tubastatin A 0.054 | [1] -0.469 | defactinib -0.086 | [2] 0.058 | encorafenib 0.046 | [3] 0.032 | alisertib -0.065 | [4] 0.053 | gefitinib -0.052 | lapatinib -0.097 | pictilisib 0.023 | crizotinib 0.015 | [5] -0.053 | duvelisib 0.045 | gandotinib -0.027 | tozasertib -0.116 | doramapimod 0.012 | bafetinib -0.075 | [6] 0.076

SLC30A1 (UniProt Q9Y6M5)
inactive: alvocidib -0.01 | Tubastatin A 0.07 | [1] -0.009 | defactinib 0.013 | [2] 0.037 | encorafenib -0.011 | [3] -0.021 | alisertib -0.059 | [4] 0.007 | gefitinib 0.02 | lapatinib -0.029 | pictilisib -0.013 | crizotinib 0.003 | [5] -0.049 | duvelisib 0.026 | gandotinib 0.07 | tozasertib 0.021 | doramapimod -0.005 | bafetinib -0.007 | [6] 0.006

SLC38A9 (UniProt Q8NBW4)
inactive: alvocidib 0 | Tubastatin A 0.045 | [1] 0.025 | defactinib 0.014 | [2] -0.025 | encorafenib 0.059 | [3] -0.03 | alisertib -0.031 | [4] 0 | gefitinib -0.057 | lapatinib 0.073 | pictilisib 0.069 | crizotinib 0.011 | [5] -0.12 | duvelisib -0.043 | gandotinib 0.114 | tozasertib 0.036 | doramapimod -0.04 | bafetinib -0.013 | [6] -0.012

SLMAP isoform 3 (UniProt Q14BN4)
inactive: alvocidib -0.03 | Tubastatin A -0.044 | [1] -0.001 | defactinib 0.033 | [2] -0.022 | encorafenib 0.025 | [3] 0.159 | alisertib 0.06 | [4] 0.049 | gefitinib 0.09 | lapatinib -0.009 | pictilisib 0.009 | crizotinib -0.008 | [5] -0.088 | duvelisib 0.032 | gandotinib -0.043 | tozasertib 0.073 | doramapimod 0.027 | bafetinib -0.073 | [6] 0.095

SLC4A1AP (UniProt Q9BWU0)
inactive: alvocidib -0.019 | Tubastatin A 0.001 | [1] 0.005 | defactinib -0.022 | [2] 0.006 | encorafenib 0.002 | [3] -0.025 | alisertib -0.007 | [4] -0.008 | gefitinib 0.008 | lapatinib 0.005 | pictilisib 0.004 | crizotinib -0.006 | [5] 0.042 | duvelisib 0.023 | gandotinib 0.021 | tozasertib -0.025 | doramapimod 0.014 | bafetinib -0.009 | [6] -0.019

SLC25A21 (UniProt Q9BQT8)
inactive: alvocidib -0.068 | Tubastatin A 0.037 | [1] 0.025 | defactinib 0.019 | [2] 0.023 | encorafenib 0.048 | [3] -0.021 | alisertib 0.041 | [4] 0.002 | gefitinib 0.039 | lapatinib 0.016 | pictilisib 0.017 | crizotinib -0.012 | [5] -0.084 | duvelisib 0.02 | gandotinib 0.056 | tozasertib -0.012 | doramapimod -0.023 | bafetinib -0.011 | [6] 0.061

SMAD4 (UniProt Q13485)
inactive: alvocidib 0.007 | Tubastatin A 0.031 | [1] 0.036 | defactinib -0.007 | [2] 0.002 | encorafenib -0.001 | [3] -0.028 | alisertib 0.008 | [4] -0.012 | gefitinib -0.028 | lapatinib 0.025 | pictilisib -0.017 | crizotinib 0.031 | [5] -0.023 | duvelisib -0.015 | gandotinib 0.039 | tozasertib 0.02 | doramapimod -0.032 | bafetinib 0.031 | [6] -0.003

SLC36A1 (UniProt Q7Z2H8)
inactive: alvocidib 0.098 | Tubastatin A 0.055 | [1] 0.076 | defactinib 0.027 | [2] -0.049 | encorafenib 0.113 | [3] 0.004 | alisertib 0.153 | [4] -0.023 | gefitinib -0.16 | lapatinib 0.02 | pictilisib -0.049 | crizotinib -0.067 | [5] -0.046 | duvelisib 0.055 | gandotinib -0.023 | tozasertib -0.092 | doramapimod 0.088 | bafetinib -0.019 | [6] 0.144

SLC44A2 (UniProt Q8IWA5)
inactive: alvocidib 0.085 | Tubastatin A 0.085 | [1] -0.044 | defactinib 0.128 | [2] -0.021 | encorafenib 0.009 | [3] -0.092 | alisertib -0.039 | [4] 0.028 | gefitinib -0.047 | lapatinib -0.003 | pictilisib 0.011 | crizotinib 0.027 | [5] 0.069 | duvelisib 0.029 | gandotinib 0.05 | tozasertib -0.051 | doramapimod 0.009 | bafetinib -0.057 | [6] -0.105

SMAGP (UniProt Q0VAQ4)
inactive: alvocidib 0.031 | Tubastatin A 0.147 | [1] 0.091 | [2] 0.009 | encorafenib 0.005 | [3] 0.152 | alisertib -0.221 | [4] -0.323 | gefitinib -0.236 | lapatinib 0.05 | crizotinib 0.129 | [5] -0.145 | duvelisib 0.017 | gandotinib 0.052 | tozasertib -0.051 | doramapimod -0.087 | [6] -0.014

SLC45A4 isoform 3 (UniProt Q5BKX6)
inactive: alvocidib 0.034 | Tubastatin A 0.044 | [1] -0.059 | defactinib -0.016 | encorafenib 0.142 | [3] -0.081 | alisertib 0.183 | [4] 0.004 | gefitinib -0.181 | lapatinib -0.006 | pictilisib -0.072 | crizotinib -0.01 | [5] 0.042 | gandotinib -0.104 | tozasertib 0.043 | doramapimod 0.03 | bafetinib -0.046 | [6] 0.029

SLC35B1 isoform 2 (UniProt P78383)
inactive: alvocidib -0.375 | Tubastatin A -0.19 | [1] 0.061 | defactinib 0.056 | [2] -0.002 | encorafenib 0 | [3] 0.047 | alisertib 0.182 | [4] 0.006 | gefitinib -0.022 | lapatinib -0.059 | crizotinib -0.038 | [5] -0.271 | duvelisib 0.009 | gandotinib 0.039 | tozasertib 0.032 | doramapimod -0.102 | [6] 0.298
